The source of these data is the RNAGym collection of RNA variant scans (doi:10.1126/science.aae0568).

Variants at the floor of the assay are shown more often than the library holds them.

B1: tRNA (parent)
chain: GUUCCGUUGGCGUAAUGGUAACGCGUCUCCCUCCUAAGGAGAAGACUGCGGGUUCGAGUCCCGUACGGAACG

Variants of B1 are the subject of the data set. In words: yeast fitness relative to wild type (ratio to wild type); higher = fitter; tRNA-Arg(CCU), competitive growth, 37 C, YPD. The gist of the method: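 Amplicons of the tRNA-Arg(CCU) gene were sequenced, 100-nucleotide paired-end, from the start population and from each end population of a pooled yeast competition. The competition, in six parallel replicates, lasted 24 hours in YPD at 37°C. Fitness relative to wild type was calculated from changes in genotype frequencies. Genotypes had to have ≥ 100 starting reads, and estimates < 0.5 were set to 0.5.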
In the case of C5U C11A A37C, the yeast fitness is no more than 0.5.

In the case of A20G U28G C29U C49U U54A C55U A70C, the yeast fitness was no more than 0.5.

U3A C5U C22G C34G A37G A65G: the yeast fitness was no more than 0.5.

For the variant G6C U8C G50A G67C A70U, the yeast fitness is no more than 0.5.

On to U2C C5U A43U C49U, for which the yeast fitness was no more than 0.5.

C11U G39C: the yeast fitness was determined as 0.68.

For G17C U28C C29G A42C G51A, the yeast fitness was no more than 0.5.

As for G12A A37C A40G, the yeast fitness is no more than 0.5.

For the variant G10A U13C G18C C61G C66U A69C, the yeast fitness is no more than 0.5.

In the case of C5G C33G C60A G67C, the yeast fitness is no more than 0.5.

On to C4A A21C A70C, for which the yeast fitness was no more than 0.5.

Regarding C34A A43C C62A, the yeast fitness was no more than 0.5.

On to U2A G18A G38C U64G A70C, for which the yeast fitness is no more than 0.5.

U3A G25C U47A: the yeast fitness is 0.547.

Regarding C5G U7G U13A C30A A43C U53C C61U A69U, the yeast fitness is no more than 0.5.

Regarding A14U A21U U32G A37G A45G, the yeast fitness is no more than 0.5.

Turning to A37G C55U C60G, the yeast fitness was no more than 0.5.

G9A G39C A42C C49A: the yeast fitness was no more than 0.5.

With G9C A15U C31U G51C G56A C62G, the yeast fitness is no more than 0.5.

As for A15C C33A C46G, the yeast fitness is no more than 0.5.

C22A C27A C33U C34U G39C U53C C61G: the yeast fitness was no more than 0.5.

For A14C C27G C46G G58A A65G, the yeast fitness was no more than 0.5.

Take C24G G41A C46U A65G: the yeast fitness was no more than 0.5.

With U19G A40G G51C G68U, the yeast fitness is no more than 0.5.

Turning to G9C A14C A42G C60A, the yeast fitness is no more than 0.5.

For G6C C24G C31G, the yeast fitness is no more than 0.5.

As to A43U C46G U54A, the yeast fitness turned out to be 0.538.

Take C11G C30G C61A C62G: the yeast fitness was no more than 0.5.

As for U2C A15G G38C U64A G68A A69C, the yeast fitness was no more than 0.5.

On to U28A C29G G51A G56A G68A, for which the yeast fitness was no more than 0.5.

Take C4A C5U C29G C33U U47A G51A C61U: the yeast fitness is no more than 0.5.

On to G9C G12C A40U G41A, for which the yeast fitness is no more than 0.5.

On to C22U C30G G50C A70G, for which the yeast fitness was no more than 0.5.

On to A20C G23C C27A C62A A69U, for which the yeast fitness is no more than 0.5.

For C4U C11G A45U A70C, the yeast fitness was no more than 0.5.

As to A14G C22G C30G U47A, the yeast fitness is no more than 0.5.

For the variant C22G C29A G68C, the yeast fitness was no more than 0.5.

As to G6C U13G G18A C55U, the yeast fitness is no more than 0.5.

On to C30G C46G C60U A69G, for which the yeast fitness was no more than 0.5.

As for C5G U13A A45C C66U, the yeast fitness was no more than 0.5.

C31G C34U A40C G68C: the yeast fitness is no more than 0.5.

For U2C U47C G67C, the yeast fitness came to 0.719.

With C22A C29A G56U C61U, the yeast fitness is no more than 0.5.

For A21G C33G A40G C55U, the yeast fitness was no more than 0.5.

Regarding C31G C33G G63A, the yeast fitness was no more than 0.5.

For the variant U53A C62G, the yeast fitness is 0.598.

Consider C24U A36U C66A, for which the yeast fitness is no more than 0.5.

As for C4U A14G A36C C46G C66U, the yeast fitness is no more than 0.5.

For the variant C5G U35A C62U, the yeast fitness was no more than 0.5.

For the variant C22G C31A C34U A43U, the yeast fitness is no more than 0.5.

Consider U26C G63A, for which the yeast fitness stood at 0.916.

U2G U3A C5U U7C U8C A20C U35C A37U A57C: the yeast fitness is no more than 0.5.

For C5A U8C G38A C66U, the yeast fitness is no more than 0.5.

Take A14G C55G A65G C66G: the yeast fitness is no more than 0.5.

Consider G18A A21C C30U A45G, for which the yeast fitness is no more than 0.5.

Take C4G C11G C22U G58C: the yeast fitness was no more than 0.5.

For the variant U2A G25A G68A, the yeast fitness is 0.64.

On to U13A U28C G67A A70U, for which the yeast fitness is no more than 0.5.

On to U3A C11G G12A C22U G39A A65G, for which the yeast fitness is no more than 0.5.

Turning to A14G C31U C34U G38A C46U, the yeast fitness is no more than 0.5.

For C4G A37U, the yeast fitness was found to be 0.681.

In the case of U16A C27U A37C A40U A43U C66U, the yeast fitness is no more than 0.5.

For the variant C5A C24G U35G, the yeast fitness was no more than 0.5.

With C24U A36C C49A, the yeast fitness was no more than 0.5.

In the case of U2G C11U A15U, the yeast fitness is no more than 0.5.

As for C4G G6A U47A, the yeast fitness stood at 0.61.

As for C11G A20U C24G C60G G68C, the yeast fitness was no more than 0.5.

Take G6C U16G A20C G25A A43U C55U: the yeast fitness is no more than 0.5.

Consider U3C G41A G52C C61U C62U, for which the yeast fitness is no more than 0.5.

Consider C5G U13G C29U A40G U64A, for which the yeast fitness was no more than 0.5.

As to C60U A70G, the yeast fitness came out at 0.786.

As to G6C U16G C27U G56A C60G, the yeast fitness was no more than 0.5.

Turning to A20G A37U C61A, the yeast fitness was no more than 0.5.

As to A15C C49G C62U, the yeast fitness was 0.636.

Take G48A C61U A65C: the yeast fitness was no more than 0.5.

In the case of G9C U16G C60A, the yeast fitness is no more than 0.5.

Consider C5G G25A U53G, for which the yeast fitness was no more than 0.5.

In the case of G9A C11U G48A, the yeast fitness was determined as 0.715.

With C5U G10A C22U G39A A57G, the yeast fitness was no more than 0.5.

As for C11G C30U U35C C46G G58C, the yeast fitness was no more than 0.5.

Take C4A G10C G23C C24G A40U G51A A57U: the yeast fitness is no more than 0.5.

For the variant U8A A20C U35A G38C, the yeast fitness was no more than 0.5.

Turning to U13G C27A U28A C33U A69C, the yeast fitness was no more than 0.5.
